At least one structure is not confirmed: it was looked up by name or label, or the drawing left a doubt.
Key:
[1] = system: PDX (patient-derived xenograft); test: Single-cell density (resonance frequency plus electromagnetic radiation signal), PDX model; format: cell-based; conditions: PDX model cells exposed to trametinib vs control (DMSO), FIG. 3
[2] = system: PDX (patient-derived xenograft); test: Single-cell buoyant mass (suspended microchannel resonator), PDX model; format: cell-based; conditions: PDX model cells exposed to trametinib vs control (DMSO, FIG. 2)
[3] = system: PDX (patient-derived xenograft); test: Acute drug sensitivity with viability markers, PDX model; format: cell-based; conditions: PDX model cells exposed to trametinib vs control (DMSO, FIG. 2)
[4] = system: PDX (patient-derived xenograft); conditions: stated as known; cited from earlier work

CC(=O)Nc1cccc(-n2c(=O)n(C3CC3)c(=O)c3c(Nc4ccc(I)cc4F)n(C)c(=O)c(C)c32)c1 [trametinib]
density response compared to control [1]: clear response | buoyant mass response compared to control [2]: no statistically significant response | acute drug sensitivity with viability markers, response compared to control [3]: no statistically significant response | sensitivity of the PDX model to the drug [4]: sensitive

Reference: patent US20250044213A1, “SINGLE-CELL DENSITY AS A BIOMARKER FOR DRUG SENSITIVITY” (Massachusetts Institute of Technology, priority 2021, published 2025)
